{"source": "PubChem BioAssay AID1259308 (NCATS, 2017)", "screen": "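Genes whose loss raises luciferase production in HEK293 cells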 (primary screen)", "cell system": "human HEK293 embryonic kidney cells stably expressing firefly luciferase (HEK-CMV-Luc2-Hygro)", "reagent": "single siRNA against human genes, 0.8 pmol siRNA per well", "time to read-out": "72 h", "measured": "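Luciferase light (ONE-Glo) measured on one replicate plate set and viability (CellTiter-Glo) on the other, scaled to a negative control siRNA, with robust z-scores and luciferase per cell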", "reading the numbers": "total luciferase, z-score and total luciferase, % of control: higher = more reporter protein produced", "call rule": "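Active when the median/MAD z-score for overall luciferase is greater than 3; a gene was taken forward for validation with new siRNAs if at least two of its three siRNAs passed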", "meaning of the calls": "active = raised luciferase; inactive = no rise", "note": "Shown is one part, drawn at random, of about 59,000 reagents tested. In the full data, about 1,510 (2.6%) got an active call. 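Calls use total luciferase alone and ignore viability, so some active siRNAs may act by altering cell number.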 Reagents against one gene are numbered here. Further read-outs or replicates are left out here."}
{"gene": "RASGRP3 (GeneID 25780)", "reagent no.": 1, "total luciferase, z-score": -0.0272, "total luciferase, % of control": 81.3, "call": "inactive"}
{"gene": "RASGRP3 (GeneID 25780)", "reagent no.": 2, "total luciferase, z-score": -0.0802, "total luciferase, % of control": 80.3, "call": "inactive"}
{"gene": "RASGRP3 (GeneID 25780)", "reagent no.": 3, "total luciferase, z-score": -0.737, "total luciferase, % of control": 67.2, "call": "inactive"}
{"gene": "RPL18A (GeneID 6142)", "reagent no.": 1, "total luciferase, z-score": -2.67, "total luciferase, % of control": 28.7, "call": "inactive"}
{"gene": "RPL18A (GeneID 6142)", "reagent no.": 2, "total luciferase, z-score": -2.37, "total luciferase, % of control": 34.7, "call": "inactive"}
{"gene": "RPL18A (GeneID 6142)", "reagent no.": 3, "total luciferase, z-score": -2.97, "total luciferase, % of control": 22.8, "call": "inactive"}
{"gene": "H2BC21 (GeneID 8349)", "reagent no.": 1, "total luciferase, z-score": -0.949, "total luciferase, % of control": 63, "call": "inactive"}
{"gene": "H2BC21 (GeneID 8349)", "reagent no.": 2, "total luciferase, z-score": 0.838, "total luciferase, % of control": 98.6, "call": "inactive"}
{"gene": "H2BC21 (GeneID 8349)", "reagent no.": 3, "total luciferase, z-score": -0.527, "total luciferase, % of control": 71.4, "call": "inactive"}
{"gene": "LIG4 (GeneID 3981)", "reagent no.": 1, "total luciferase, z-score": 0.262, "total luciferase, % of control": 87.1, "call": "inactive"}
{"gene": "LIG4 (GeneID 3981)", "reagent no.": 2, "total luciferase, z-score": 2.24, "total luciferase, % of control": 127, "call": "inactive"}
{"gene": "LIG4 (GeneID 3981)", "reagent no.": 3, "total luciferase, z-score": -1.13, "total luciferase, % of control": 59.3, "call": "inactive"}

2 of these entries in another layout:
RASGRP3 (GeneID 25780) #3
- total luciferase, z-score: -0.737
- total luciferase, % of control: 67.2
- call: inactive

RPL18A (GeneID 6142) #1
- total luciferase, z-score: -2.67
- total luciferase, % of control: 28.7
- call: inactive
